Laboratory results taken from PMC4315436.
No constants are given. Whether binding was seen depends on the method and setting. Some results given as binding are weak or reduced against the parent protein; the word gives no strength.

T1: PduV (UniProt Q9XDM6)
T1 sequence: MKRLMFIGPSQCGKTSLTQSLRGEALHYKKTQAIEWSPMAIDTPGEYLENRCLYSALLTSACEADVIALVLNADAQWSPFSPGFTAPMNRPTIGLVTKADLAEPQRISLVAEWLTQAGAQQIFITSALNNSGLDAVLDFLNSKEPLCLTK

T2: PduU (UniProt P0A1D1)
T2 sequence: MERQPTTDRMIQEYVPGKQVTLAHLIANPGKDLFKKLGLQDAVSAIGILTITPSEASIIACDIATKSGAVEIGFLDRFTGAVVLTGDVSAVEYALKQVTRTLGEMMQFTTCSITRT

B1: PduU (protein, UniProt P0A1D1 1-116)
chain: T2 sequence
B2: PduV (protein, UniProt Q9XDM6 1-150)
chain: T1 sequence

Tests used:
PduV = target: T1, PduV; test: two-hybrid; BacterioMatch II bacterial two-hybrid in E. coli reporter cells; bait in pBT as λcI fusion, prey in pTRG as RNAPα fusion; 30 ng each of bait and prey vector; HIS3 reporter, cfu on selective screening medium with 3-AT; three repeats, mean ± 1 SD
PduU = target: T2, PduU; test: two-hybrid; BacterioMatch II bacterial two-hybrid; second reporter gene aadA, streptomycin resistance of co-transformed E. coli

| Binder | binding (PduV) | binding (PduU) |
| --- | --- | --- |
| B1 | binds |  |
| B2 |  | binds |
